Laboratory results taken from PMC12462987.
Like-named read-outs stand apart in the source and are kept apart here. Results are given in words; binding and its absence hold for the method and conditions named. Binding seen in cells or lysates may run through a third protein. Some results given as binding are weak or reduced against the parent protein; the word gives no strength. Each block holds one molecule with its values, some of them ahead of it.

Chains of the proteins cited; added tags and fusions are not shown. Lines headed by an entry give the natural chain unless they say otherwise; changes in a name come on top. A line that says so, or that is headed by a name, gives the form on record, which may keep a tag or linker. Residues count along the entry.
UniProt P43268: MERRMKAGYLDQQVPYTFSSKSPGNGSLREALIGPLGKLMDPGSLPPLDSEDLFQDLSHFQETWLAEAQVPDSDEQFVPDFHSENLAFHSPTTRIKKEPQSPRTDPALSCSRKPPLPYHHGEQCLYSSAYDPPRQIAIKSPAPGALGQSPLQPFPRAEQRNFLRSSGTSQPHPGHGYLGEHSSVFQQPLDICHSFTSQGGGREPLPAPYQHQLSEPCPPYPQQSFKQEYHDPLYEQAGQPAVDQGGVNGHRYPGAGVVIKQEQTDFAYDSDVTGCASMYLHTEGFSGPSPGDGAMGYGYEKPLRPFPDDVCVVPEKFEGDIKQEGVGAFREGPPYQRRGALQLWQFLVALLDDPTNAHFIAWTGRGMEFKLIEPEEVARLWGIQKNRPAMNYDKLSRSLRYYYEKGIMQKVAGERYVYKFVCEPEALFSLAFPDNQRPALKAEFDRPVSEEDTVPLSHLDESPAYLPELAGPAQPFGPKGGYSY
Flag-tagged ETV4-ΔN (N-terminal deletion, Δ1-164aa): residues 165-484 of P43268
Flag-tagged ETV4-ΔDBD (deletion of the DNA binding domain, 337-430 aa) (P43268, form named): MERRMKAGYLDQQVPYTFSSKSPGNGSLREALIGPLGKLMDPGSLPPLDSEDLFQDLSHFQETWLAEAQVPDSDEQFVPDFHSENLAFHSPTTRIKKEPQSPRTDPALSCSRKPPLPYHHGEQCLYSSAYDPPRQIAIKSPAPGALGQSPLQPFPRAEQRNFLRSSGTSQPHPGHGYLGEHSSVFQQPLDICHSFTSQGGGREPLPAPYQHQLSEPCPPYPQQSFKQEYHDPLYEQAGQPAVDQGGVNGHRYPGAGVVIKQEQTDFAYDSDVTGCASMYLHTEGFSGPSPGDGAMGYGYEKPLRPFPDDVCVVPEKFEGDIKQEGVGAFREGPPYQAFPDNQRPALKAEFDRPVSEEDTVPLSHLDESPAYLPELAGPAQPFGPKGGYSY
UniProt P49736: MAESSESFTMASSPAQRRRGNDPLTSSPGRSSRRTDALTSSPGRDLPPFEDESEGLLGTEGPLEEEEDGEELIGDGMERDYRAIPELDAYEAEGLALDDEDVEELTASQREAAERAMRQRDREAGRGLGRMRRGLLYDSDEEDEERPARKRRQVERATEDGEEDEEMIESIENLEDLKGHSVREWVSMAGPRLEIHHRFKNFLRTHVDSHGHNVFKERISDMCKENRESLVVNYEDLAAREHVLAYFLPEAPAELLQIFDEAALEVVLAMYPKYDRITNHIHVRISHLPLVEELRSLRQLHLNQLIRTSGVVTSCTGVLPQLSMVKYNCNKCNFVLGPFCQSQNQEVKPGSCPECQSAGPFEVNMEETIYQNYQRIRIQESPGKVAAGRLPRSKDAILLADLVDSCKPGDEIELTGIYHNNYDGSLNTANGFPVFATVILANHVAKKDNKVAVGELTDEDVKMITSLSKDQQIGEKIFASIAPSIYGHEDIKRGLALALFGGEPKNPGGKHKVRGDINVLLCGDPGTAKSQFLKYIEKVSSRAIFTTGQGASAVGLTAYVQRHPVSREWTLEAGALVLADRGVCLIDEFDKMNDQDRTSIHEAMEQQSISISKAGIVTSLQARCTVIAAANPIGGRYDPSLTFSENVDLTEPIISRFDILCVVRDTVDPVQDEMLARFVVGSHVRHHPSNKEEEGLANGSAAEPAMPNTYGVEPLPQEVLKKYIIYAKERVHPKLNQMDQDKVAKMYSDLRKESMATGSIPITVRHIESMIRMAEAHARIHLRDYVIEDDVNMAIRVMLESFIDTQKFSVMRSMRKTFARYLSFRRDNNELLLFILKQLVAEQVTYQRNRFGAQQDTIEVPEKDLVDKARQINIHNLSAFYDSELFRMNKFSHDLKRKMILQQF
UniProt Q9Y5B9: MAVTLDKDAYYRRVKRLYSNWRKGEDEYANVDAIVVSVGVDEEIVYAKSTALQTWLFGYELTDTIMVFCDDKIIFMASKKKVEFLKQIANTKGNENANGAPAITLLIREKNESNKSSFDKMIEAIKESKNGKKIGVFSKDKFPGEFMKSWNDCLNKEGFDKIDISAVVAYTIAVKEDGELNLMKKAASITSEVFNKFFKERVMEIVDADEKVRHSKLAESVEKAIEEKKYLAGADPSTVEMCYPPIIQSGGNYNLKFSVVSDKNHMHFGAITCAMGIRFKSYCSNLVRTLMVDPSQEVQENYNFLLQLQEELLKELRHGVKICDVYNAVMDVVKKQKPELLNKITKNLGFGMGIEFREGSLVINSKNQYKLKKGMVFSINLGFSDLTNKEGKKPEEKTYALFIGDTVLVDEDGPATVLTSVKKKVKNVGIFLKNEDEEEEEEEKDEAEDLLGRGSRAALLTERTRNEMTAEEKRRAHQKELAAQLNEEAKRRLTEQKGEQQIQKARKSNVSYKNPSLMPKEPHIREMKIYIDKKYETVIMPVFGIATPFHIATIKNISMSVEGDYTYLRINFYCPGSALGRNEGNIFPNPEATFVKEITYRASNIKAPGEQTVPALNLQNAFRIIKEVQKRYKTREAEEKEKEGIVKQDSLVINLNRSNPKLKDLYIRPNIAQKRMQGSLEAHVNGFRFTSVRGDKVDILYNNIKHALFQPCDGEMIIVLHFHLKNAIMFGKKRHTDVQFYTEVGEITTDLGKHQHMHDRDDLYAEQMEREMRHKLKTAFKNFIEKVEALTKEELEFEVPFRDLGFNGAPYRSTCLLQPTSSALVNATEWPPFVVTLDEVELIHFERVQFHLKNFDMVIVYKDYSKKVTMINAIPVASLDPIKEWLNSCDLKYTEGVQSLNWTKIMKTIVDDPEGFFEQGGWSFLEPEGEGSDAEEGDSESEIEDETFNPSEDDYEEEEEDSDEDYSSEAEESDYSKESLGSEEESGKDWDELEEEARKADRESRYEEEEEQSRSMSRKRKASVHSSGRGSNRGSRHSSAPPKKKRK
UniProt Q08945: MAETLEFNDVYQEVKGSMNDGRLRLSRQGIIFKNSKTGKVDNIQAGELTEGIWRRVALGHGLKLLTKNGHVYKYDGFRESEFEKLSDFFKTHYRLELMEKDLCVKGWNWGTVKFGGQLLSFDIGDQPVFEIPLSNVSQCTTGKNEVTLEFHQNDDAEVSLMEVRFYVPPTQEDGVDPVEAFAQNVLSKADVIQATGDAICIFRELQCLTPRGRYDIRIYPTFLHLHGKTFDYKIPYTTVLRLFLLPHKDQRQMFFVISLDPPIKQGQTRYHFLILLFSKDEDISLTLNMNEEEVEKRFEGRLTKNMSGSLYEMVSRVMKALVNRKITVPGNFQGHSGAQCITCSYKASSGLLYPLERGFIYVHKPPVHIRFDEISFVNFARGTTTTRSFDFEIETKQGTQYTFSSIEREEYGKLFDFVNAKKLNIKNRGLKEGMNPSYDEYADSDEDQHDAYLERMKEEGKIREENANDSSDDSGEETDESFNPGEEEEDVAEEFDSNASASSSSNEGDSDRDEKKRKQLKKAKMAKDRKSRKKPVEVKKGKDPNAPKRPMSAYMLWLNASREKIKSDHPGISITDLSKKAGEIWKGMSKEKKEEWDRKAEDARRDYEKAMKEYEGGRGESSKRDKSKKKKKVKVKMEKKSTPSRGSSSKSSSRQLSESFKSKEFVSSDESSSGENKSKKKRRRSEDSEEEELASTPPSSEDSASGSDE

Columns and labels:
[1] = target: ETV4 (ETS transcription factor ETV4), endogenous (human (endogenous in A549, H1299, HEK293T)) (UniProt P43268); assay: co-IP; IP of endogenous ETV4 from chromatin-bound (Chrom.) proteins of A549 and H1299 cells, immunoblot
[2] = target: Flag-tagged ETV4-ΔDBD (deletion of the DNA binding domain, 337-430 aa) (UniProt P43268); assay: co-IP; HEK293T transfected with one tagged protein (Flag-ETV4 constructs, HA-MCM2 constructs or His-histone H3); anti-Flag, anti-HA or anti-His IP from RIPA lysate; immunoblot of the partner proteins of the lysate
[3] = target: Flag-tagged ETV4-ΔN (N-terminal deletion, Δ1-164aa) (UniProt P43268); assay: as above
[4] = target: Flag-tagged full-length ETV4 (FL, 1-484aa) (UniProt P43268); assay: as above
[5] = target: ETV4 (ETS transcription factor ETV4), endogenous (human (endogenous in A549, H1299, HEK293T)) (UniProt P43268); assay: proximity ligation; Duolink in situ PLA in fixed A549 and H1299 cells with anti-ETV4 and anti-MCM2 or anti-SUPT16H; also with EdU co-staining of S phase cells
[6] = target: ETV4 (ETS transcription factor ETV4), endogenous (human (endogenous in A549, H1299, HEK293T)) (UniProt P43268); assay: co-IP; IP of the endogenous protein (anti-ETV4, anti-SSRP1 or anti-SUPT16H) from whole-cell RIPA lysates of A549 and H1299 cells, 4 °C overnight, Protein A/G Plus-Agarose, immunoblot; also cells synchronised by double thymidine block and released
[7] = target: His-ETV4, purified protein (UniProt P43268); assay: pull-down; 20 µg purified His-histone H3 or His-ETV4 on Ni-NTA His-bind resin incubated with RIPA lysates of A549 or H1299 cells, 4 °C, 6 h; Western blot; only the target purified
[8] = target: HA-tagged MCM2-FL (UniProt P49736); assay: co-IP; HEK293T transfected with one tagged protein (Flag-ETV4 constructs, HA-MCM2 constructs or His-histone H3); anti-Flag, anti-HA or anti-His IP from RIPA lysate; immunoblot of the partner proteins of the lysate
[9] = target: SUPT16H (FACT subunit), endogenous (human (endogenous in A549, H1299, HEK293T)) (UniProt Q9Y5B9); assay: co-IP; IP of the endogenous protein (anti-ETV4, anti-SSRP1 or anti-SUPT16H) from whole-cell RIPA lysates of A549 and H1299 cells, 4 °C overnight, Protein A/G Plus-Agarose, immunoblot; also cells synchronised by double thymidine block and released
[10] = target: SSRP1 (FACT subunit), endogenous (human (endogenous in A549, H1299, HEK293T)) (UniProt Q08945); assay: as above
[11] = target: Flag-tagged ETV4-ΔN (N-terminal deletion, Δ1-164aa) (UniProt P43268); assay: co-IP; HEK293T transfected with one tagged protein (Flag-ETV4 constructs, HA-MCM2 constructs or His-histone H3); anti-Flag, anti-HA or anti-His IP from RIPA lysate; immunoblot of the partner proteins of the lysate; remark: listed apart in the source
[12] = target: Flag-tagged full-length ETV4 (FL, 1-484aa) (UniProt P43268); assay: as above; remark: listed apart in the source
[13] = target: ETV4 (ETS transcription factor ETV4), endogenous (human (endogenous in A549, H1299, HEK293T)) (UniProt P43268); assay: co-IP; IP of the endogenous protein (anti-ETV4, anti-SSRP1 or anti-SUPT16H) from whole-cell RIPA lysates of A549 and H1299 cells, 4 °C overnight, Protein A/G Plus-Agarose, immunoblot; also cells synchronised by double thymidine block and released; remark: listed apart in the source

Molecule: MCM2 (replicative helicase subunit), endogenous (from UniProt P49736 1-904)
- binding [1]: binds
- binding [2]: binds
- binding [3]: binds
- binding [4]: binds
- binding [5]: binds
- binding [6]: binds
- binding [7]: binds

Molecule: SUPT16H (FACT subunit), endogenous (from UniProt Q9Y5B9 1-1047)
- binding [8]: binds
- binding [4]: binds
- binding [5]: binds
- binding [6]: binds
- binding [7]: binds

Molecule: ETV4 (ETS transcription factor ETV4), endogenous (from UniProt P43268 1-484)
- binding [8]: binds
- binding [9]: binds
- binding [10]: binds

Further lines, results first:

- binding [11]: binds
- binding [12]: binds
- binding [1]: binds
- binding [13]: binds
B1: ORC1 (origin recognition complex subunit 1), endogenous (protein, UniProt Q13415 1-861)
chain: MAHYPTRLKTRKTYSWVGRPLLDRKLHYQTYREMCVKTEGCSTEIHIQIGQFVLIEGDDDENPYVAKLLELFEDDSDPPPKKRARVQWFVRFCEVPACKRHLLGRKPGAQEIFWYDYPACDSNINAETIIGLVRVIPLAPKDVVPTNLKNEKTLFVKLSWNEKKFRPLSSELFAELNKPQESAAKCQKPVRAKSKSAESPSWTPAEHVAKRIESRHSASKSRQTPTHPLTPRARKRLELGNLGNPQMSQQTSCASLDSPGRIKRKVAFSEITSPSKRSQPDKLQTLSPALKAPEKTRETGLSYTEDDKKASPEHRIILRTRIAASKTIDIREERTLTPISGGQRSSVVPSVILKPENIKKRDAKEAKAQNEATSTPHRIRRKSSVLTMNRIRQQLRFLGNSKSDQEEKEILPAAEISDSSSDEEEASTPPLPRRAPRTVSRNLRSSLKSSLHTLTKVPKKSLKPRTPRCAAPQIRSRSLAAQEPASVLEEARLRLHVSAVPESLPCREQEFQDIYNFVESKLLDHTGGCMYISGVPGTGKTATVHEVIRCLQQAAQANDVPPFQYIEVNGMKLTEPHQVYVQILQKLTGQKATANHAAELLAKQFCTRGSPQETTVLLVDELDLLWTHKQDIMYNLFDWPTHKEARLVVLAIANTMDLPERIMMNRVSSRLGLTRMCFQPYTYSQLQQILRSRLKHLKAFEDDAIQLVARKVAALSGDARRCLDICRRATEICEFSQQKPDSPGLVTIAHSMEAVDEMFSSSYITAIKNSSVLEQSFLRAILAEFRRSGLEEATFQQIYSQHVALCRMEGLPYPTMSETMAVCSHLGSCRLLLVEPSRNDLLLRVRLNVSQDDVLYALKDE

- binding [11]: binds
- binding [12]: binds
- binding [1]: binds
- binding [13]: binds
B2: ORC6, endogenous (protein, UniProt Q9Y5N6 1-252)
chain: MGSELIGRLAPRLGLAEPDMLRKAEEYLRLSRVKCVGLSARTTETSSAVMCLDLAASWMKCPLDRAYLIKLSGLNKETYQSCLKSFECLLGLNSNIGIRDLAVQFSCIEAVNMASKILKSYESSLPQTQQVDLDLSRPLFTSAALLSACKILKLKVDKNKMVATSGVKKAIFDRLCKQLEKIGQQVDREPGDVATPPRKRKKIVVEAPAKEMEKVEEMPHKPQKDEDLTQDYEEWKRKILENAASAQKATAE
